Consider two molecules from PMC12864862.

Amino acid sequences for entries named in this document (tags omitted). A change or cut given only in a name is not applied to a line headed by its entry. Chains listed by the source or under a name are the forms on record and can include a tag or linker. Residues count along the entry.
UniProt Q93050: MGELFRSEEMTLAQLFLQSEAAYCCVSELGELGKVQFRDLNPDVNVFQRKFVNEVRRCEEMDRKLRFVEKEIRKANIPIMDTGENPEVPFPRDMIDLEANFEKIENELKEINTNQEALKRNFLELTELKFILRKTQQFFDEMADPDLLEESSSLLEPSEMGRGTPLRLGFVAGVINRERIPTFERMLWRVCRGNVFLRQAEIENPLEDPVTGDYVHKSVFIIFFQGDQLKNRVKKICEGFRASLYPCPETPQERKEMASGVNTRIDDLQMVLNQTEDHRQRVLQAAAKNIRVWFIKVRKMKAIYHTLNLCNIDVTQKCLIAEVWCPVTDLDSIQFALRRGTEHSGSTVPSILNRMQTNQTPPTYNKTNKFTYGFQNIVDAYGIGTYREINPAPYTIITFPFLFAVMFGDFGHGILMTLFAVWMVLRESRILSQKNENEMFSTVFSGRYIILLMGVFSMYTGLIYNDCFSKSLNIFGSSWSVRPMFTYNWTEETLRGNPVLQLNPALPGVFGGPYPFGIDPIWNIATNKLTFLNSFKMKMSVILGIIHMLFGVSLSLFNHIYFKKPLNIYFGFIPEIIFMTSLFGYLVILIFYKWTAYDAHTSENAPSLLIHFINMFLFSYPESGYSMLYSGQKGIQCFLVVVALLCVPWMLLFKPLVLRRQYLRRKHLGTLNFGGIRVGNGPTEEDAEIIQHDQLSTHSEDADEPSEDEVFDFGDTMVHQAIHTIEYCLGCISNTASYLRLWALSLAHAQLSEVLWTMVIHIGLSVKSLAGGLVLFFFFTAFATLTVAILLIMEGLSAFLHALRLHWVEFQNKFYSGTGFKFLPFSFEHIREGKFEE
Voa1 amino-terminal domain, ATP6V0A1(NTD, 1-388), 3×FLAG-tagged: residues 1-388 of Q93050
UniProt Q9HBG4: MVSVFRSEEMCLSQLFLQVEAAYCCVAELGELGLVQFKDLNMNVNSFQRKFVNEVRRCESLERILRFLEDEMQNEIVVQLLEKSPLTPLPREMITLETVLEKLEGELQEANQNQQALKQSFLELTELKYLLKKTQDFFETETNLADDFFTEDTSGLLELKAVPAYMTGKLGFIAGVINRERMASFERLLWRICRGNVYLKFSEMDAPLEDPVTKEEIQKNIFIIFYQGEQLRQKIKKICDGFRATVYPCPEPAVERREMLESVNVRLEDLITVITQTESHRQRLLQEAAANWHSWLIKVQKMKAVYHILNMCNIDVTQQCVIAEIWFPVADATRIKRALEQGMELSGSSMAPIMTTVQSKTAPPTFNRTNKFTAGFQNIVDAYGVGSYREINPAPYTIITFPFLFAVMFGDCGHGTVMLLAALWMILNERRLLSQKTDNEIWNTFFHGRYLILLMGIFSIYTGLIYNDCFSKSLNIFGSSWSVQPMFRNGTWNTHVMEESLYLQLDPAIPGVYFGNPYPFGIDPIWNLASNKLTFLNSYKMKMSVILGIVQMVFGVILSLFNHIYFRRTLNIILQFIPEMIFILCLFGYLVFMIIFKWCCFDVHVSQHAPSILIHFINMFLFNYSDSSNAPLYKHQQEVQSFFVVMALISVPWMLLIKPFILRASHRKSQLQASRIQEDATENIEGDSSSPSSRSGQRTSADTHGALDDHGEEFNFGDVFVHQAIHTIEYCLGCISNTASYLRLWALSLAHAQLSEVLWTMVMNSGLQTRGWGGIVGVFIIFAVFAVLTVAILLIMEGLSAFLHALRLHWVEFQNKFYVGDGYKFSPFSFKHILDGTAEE
Voa4 amino-terminal domain, ATP6V0A4(NTD, 1-390), 3×FLAG-tagged: residues 1-390 of Q9HBG4

What all share (experiment): co-IP; HEK293T cells transfected as indicated; lysis in IP buffer (50 mM Tris-HCl pH 7.6, 150 mM NaCl, 5 mM EDTA, 0.5% NP40, protease inhibitors); anti-FLAG beads, 4 °C, 4 h; immunoblotting (in Fig. 5D also with the inactive ZRANB1 C443S overexpressed)
In test [1] the target is V-ATPase Vo subunit a, isoform 2 (Voa2, ATP6V0A2) (human) (UniProt Q9Y487).
In test [2] the target is V-ATPase Vo subunit a, isoform 3 (Voa3, encoded by ATP6V0A3) (human) (UniProt Q13488).
In test [3] the target is T1, Voa2 amino-terminal domain, ATP6V0A2 (NTD, 1-393), 3×FLAG-tagged (human) (UniProt Q9Y487).
T1 sequence: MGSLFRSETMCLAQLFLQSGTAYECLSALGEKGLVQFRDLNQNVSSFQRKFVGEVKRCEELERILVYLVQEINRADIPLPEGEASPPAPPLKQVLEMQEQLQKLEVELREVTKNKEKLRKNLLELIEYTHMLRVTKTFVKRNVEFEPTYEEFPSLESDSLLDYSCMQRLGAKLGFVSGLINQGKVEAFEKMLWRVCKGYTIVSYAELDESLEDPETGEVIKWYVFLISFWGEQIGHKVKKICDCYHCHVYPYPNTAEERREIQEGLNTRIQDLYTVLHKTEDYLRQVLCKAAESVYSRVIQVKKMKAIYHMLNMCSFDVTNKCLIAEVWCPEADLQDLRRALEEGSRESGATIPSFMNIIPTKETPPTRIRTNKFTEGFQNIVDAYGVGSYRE

For test [4], the target named is V-ATPase Vo subunit a, isoform 1 (Voa1, ATP6V0A1), 3×FLAG-tagged (human) (UniProt Q93050).
For test [5], the target named is Voa1 amino-terminal domain, ATP6V0A1(NTD, 1-388), 3×FLAG-tagged (human) (UniProt Q93050).
Test [6] has as its target Voa4 amino-terminal domain, ATP6V0A4(NTD, 1-390), 3×FLAG-tagged (human) (UniProt Q9HBG4).
For test [7], the target named is V-ATPase Vo subunit a, isoform 4 (Voa4, ATP6V0A4) (human) (UniProt Q9HBG4).
Test [8] addresses T2, Voa3 amino-terminal domain, ATP6V0A3(NTD, 1-385), 3×FLAG-tagged (human) (UniProt Q13488).
T2 sequence: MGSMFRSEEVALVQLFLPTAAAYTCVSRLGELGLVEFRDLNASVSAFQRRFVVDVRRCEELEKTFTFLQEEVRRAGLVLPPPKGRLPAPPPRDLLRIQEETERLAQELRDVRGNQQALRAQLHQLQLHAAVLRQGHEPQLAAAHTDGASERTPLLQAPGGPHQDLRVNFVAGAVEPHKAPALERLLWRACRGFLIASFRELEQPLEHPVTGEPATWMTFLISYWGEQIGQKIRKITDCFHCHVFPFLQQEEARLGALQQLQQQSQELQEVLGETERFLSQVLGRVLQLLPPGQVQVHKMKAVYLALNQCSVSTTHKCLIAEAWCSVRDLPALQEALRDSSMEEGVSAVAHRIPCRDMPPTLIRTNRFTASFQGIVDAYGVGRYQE

Positions count from the first letter of the chain named. Numbers in names are those of the source. No constants are given. Whether binding was seen depends on the method and setting. Binding seen in cells or lysates may run through a third protein. Some binding calls cover weakened binding; strength is not graded here. Sequences can lack the tags named with a protein.

B1: apoptosis-resistant E3 ubiquitin protein ligase 1 (AREL1), wild type, myc-tagged (enzyme, UniProt O15033 1-823)
chain: MFYVIGGITVSVVAFFFTIKFLFELAARVVSFLQNEDRERRGDRTIYDYVRGNYLDPRSCKVSWDWKDPYEVGHSMAFRVHLFYKNGQPFPAHRPVGLRVHISHVELAVEIPVTQEVLQEPNSNVVKVAFTVRKAGRYEITVKLGGLNVAYSPYYKIFQPGMVVPSKTKIVCHFSTLVLTCGQPHTLQIVPRDEYDNPTNNSMSLRDEHNYTLSIHELGPQEEESTGVSFEKSVTSNRQTFQVFLRLTLHSRGCFHACISYQNQPINNGEFDIIVLSEDEKNIVERNVSTSGVSIYFEAYLYNATNCSSTPWHLPPMHMTSSQRRPSTAVDEEDEDSPSECHTPEKVKKPKKVYCYVSPKQFSVKEFYLKIIPWRLYTFRVCPGTKFSYLGPDPVHKLLTLVVDDGIQPPVELSCKERNILAATFIRSLHKNIGGSETFQDKVNFFQRELRQVHMKRPHSKVTLKVSRHALLESSLKATRNFSISDWSKNFEVVFQDEEALDWGGPRREWFELICKALFDTTNQLFTRFSDNNQALVHPNPNRPAHLRLKMYEFAGRLVGKCLYESSLGGAYKQLVRARFTRSFLAQIIGLRMHYKYFETDDPEFYKSKVCFILNNDMSEMELVFAEEKYNKSGQLDKVVELMTGGAQTPVTNANKIFYLNLLAQYRLASQVKEEVEHFLKGLNELVPENLLAIFDENELELLMCGTGDISVSDFKAHAVVVGGSWHFREKVMRWFWTVVSSLTQEELARLLQFTTGSSQLPPGGFAALCPSFQIIAAPTHSTLPTAHTCFNQLCLPTYDSYEEVHRMLQLAISEGCEGFGML
On to B1, for which the binding result in test [1], in test [2], in test [3], in test [4], in test [5] and in test [6] was “binds” each time. Further, the binding result in test [7] and in test [8] was “binds” in each case.

B2: AREL1 D709A (enzyme, UniProt O15033 1-823)
chain: B1 chain with D709A
Turning to B2, the binding entry in test [2] is recorded as “binds weakly”.
